Results deposited as PubChem BioAssay AID1508597 (Cure First, 2020)
Aim: 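Genes whose silencing sensitises or protects ovarian cancer cells against rucaparib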 (primary screen). Cells: human ovarian carcinoma lines grown from tumours: OCI-P5x (papillary serous) and OCI-C5x (clear cell). Reagents: siRNA pool against human genes, 1.25 pmol siRNA per well. Duration: 72 h or 96 h, depending on the cell culture. Treatment: rucaparib 20 µM (about IC30) or vehicle, present until read-out. Rucaparib or vehicle: Rucaparib. Cell line: OCI-P5x (serous). Read-out: 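Luminescent ATP-based viability assay read 72 or 96 h after transfection, depending on culture, given as normalised percent viability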. Scale: viability, normalised: higher = more viable cells remaining. Call rule: 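Active when normalised viability falls below 80 percent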. Meaning of the calls: active = viability under 80%; inactive = viability 80% or more.
This is a random part of the about 2,100 reagents, in one setting of the screen. 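Calls flag viability under 80% in either arm, not effects specific to rucaparib; the reference for percent is not stated.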 A reagent listed more than once was tested more than once; the source does not tell the runs apart. The record does not give: the 100% reference.

For TBL1X (transducin beta like 1 X-linked), technical replicate 1, the values are viability, normalised (%) = 71.4; active.
For TBL1X (transducin beta like 1 X-linked), technical replicate 2, the entry reads viability, normalised (%) = 70.7; active.
For TBL1X (transducin beta like 1 X-linked), technical replicate 3, the values are viability, normalised (%) = 82.4; inactive.
With MED18 (mediator complex subunit 18), technical replicate 1, the entry reads viability, normalised (%) = 59.6; active.
With MED18 (mediator complex subunit 18), technical replicate 2 the deposit lists viability, normalised (%) = 45.9; active.
For MED18 (mediator complex subunit 18), technical replicate 3, the entry reads viability, normalised (%) = 57.5; active.
With RING1 (ring finger protein 1), technical replicate 1, the values are viability, normalised (%) = 45.9; active.
With RING1 (ring finger protein 1), technical replicate 2 the deposit lists viability, normalised (%) = 47.3; active.
RING1 (ring finger protein 1), technical replicate 3 showed viability, normalised (%) = 53.3; active.
For EIF2AK2 (eukaryotic translation initiation factor 2 alpha kinase 2), technical replicate 1, the entry reads viability, normalised (%) = 70.1; active.
With EIF2AK2 (eukaryotic translation initiation factor 2 alpha kinase 2), technical replicate 2, the values are viability, normalised (%) = 90.1; inactive.
EIF2AK2 (eukaryotic translation initiation factor 2 alpha kinase 2), technical replicate 3 scored viability, normalised (%) = 75.4; active.
With PRKACB (protein kinase cAMP-activated catalytic subunit beta), technical replicate 1, the entry reads viability, normalised (%) = 96.9; inactive.
For PRKACB (protein kinase cAMP-activated catalytic subunit beta), technical replicate 2, the values are viability, normalised (%) = 94.8; inactive.
PRKACB (protein kinase cAMP-activated catalytic subunit beta), technical replicate 3 gave viability, normalised (%) = 90.6; inactive.

Reagents above called active:
TBL1X (transducin beta like 1 X-linked), technical replicate 1 → viability, normalised (%) = 71.4; call = active
TBL1X (transducin beta like 1 X-linked), technical replicate 2 → viability, normalised (%) = 70.7; call = active
MED18 (mediator complex subunit 18), technical replicate 1 → viability, normalised (%) = 59.6; call = active
MED18 (mediator complex subunit 18), technical replicate 2 → viability, normalised (%) = 45.9; call = active
MED18 (mediator complex subunit 18), technical replicate 3 → viability, normalised (%) = 57.5; call = active
RING1 (ring finger protein 1), technical replicate 1 → viability, normalised (%) = 45.9; call = active
RING1 (ring finger protein 1), technical replicate 2 → viability, normalised (%) = 47.3; call = active
RING1 (ring finger protein 1), technical replicate 3 → viability, normalised (%) = 53.3; call = active
EIF2AK2 (eukaryotic translation initiation factor 2 alpha kinase 2), technical replicate 1 → viability, normalised (%) = 70.1; call = active
EIF2AK2 (eukaryotic translation initiation factor 2 alpha kinase 2), technical replicate 3 → viability, normalised (%) = 75.4; call = active

Next entries follow.
With PMS2P4, technical replicate 1, the values are viability, normalised (%) = 88.7; inactive.
PMS2P4, technical replicate 2 showed viability, normalised (%) = 78; active.
With PMS2P4, technical replicate 3, the values are viability, normalised (%) = 87.7; inactive.
For PFKFB3 (6-phosphofructo-2-kinase/fructose-2,6-biphosphatase 3), technical replicate 1 the deposit lists viability, normalised (%) = 68.2; active.
With PFKFB3 (6-phosphofructo-2-kinase/fructose-2,6-biphosphatase 3), technical replicate 2 the deposit lists viability, normalised (%) = 54.2; active.
PFKFB3 (6-phosphofructo-2-kinase/fructose-2,6-biphosphatase 3), technical replicate 3 scored viability, normalised (%) = 50; active.
With AMELX (amelogenin X-linked), technical replicate 1, the entry reads viability, normalised (%) = 64.9; active.
AMELX (amelogenin X-linked), technical replicate 2 scored viability, normalised (%) = 54.2; active.
With AMELX (amelogenin X-linked), technical replicate 3, the values are viability, normalised (%) = 61.9; active.
With TXNDC9 (thioredoxin domain containing 9), technical replicate 1, the entry reads viability, normalised (%) = 76.3; active.
TXNDC9 (thioredoxin domain containing 9), technical replicate 2 gave viability, normalised (%) = 68.9; active.
TXNDC9 (thioredoxin domain containing 9), technical replicate 3 showed viability, normalised (%) = 84.9; inactive.
ROBO1 (roundabout guidance receptor 1), technical replicate 1 gave viability, normalised (%) = 53.1; active.
ROBO1 (roundabout guidance receptor 1), technical replicate 2 showed viability, normalised (%) = 55.9; active.
ROBO1 (roundabout guidance receptor 1), technical replicate 3 gave viability, normalised (%) = 55.1; active.
For H4C13 (H4 clustered histone 13), technical replicate 1, the entry reads viability, normalised (%) = 70.5; active.
For H4C13 (H4 clustered histone 13), technical replicate 2, the values are viability, normalised (%) = 66.3; active.
H4C13 (H4 clustered histone 13), technical replicate 3 showed viability, normalised (%) = 56.8; active.
TSSK1A (testis specific serine kinase 1A (pseudogene)), technical replicate 1 gave viability, normalised (%) = 120; inactive.
For TSSK1A (testis specific serine kinase 1A (pseudogene)), technical replicate 2, the entry reads viability, normalised (%) = 111; inactive.
TSSK1A (testis specific serine kinase 1A (pseudogene)), technical replicate 3 showed viability, normalised (%) = 112; inactive.
HAUS7 (HAUS augmin like complex subunit 7), technical replicate 1 showed viability, normalised (%) = 81.6; inactive.
HAUS7 (HAUS augmin like complex subunit 7), technical replicate 2 scored viability, normalised (%) = 82.2; inactive.
HAUS7 (HAUS augmin like complex subunit 7), technical replicate 3 scored viability, normalised (%) = 90.7; inactive.
For SUPV3L1 (Suv3 like RNA helicase), technical replicate 1, the entry reads viability, normalised (%) = 47.4; active.
With SUPV3L1 (Suv3 like RNA helicase), technical replicate 1, the values are viability, normalised (%) = 40.9; active.
SUPV3L1 (Suv3 like RNA helicase), technical replicate 2 scored viability, normalised (%) = 61; active.
For SUPV3L1 (Suv3 like RNA helicase), technical replicate 2 the deposit lists viability, normalised (%) = 38.9; active.
SUPV3L1 (Suv3 like RNA helicase), technical replicate 3 gave viability, normalised (%) = 54.7; active.
For SUPV3L1 (Suv3 like RNA helicase), technical replicate 3, the values are viability, normalised (%) = 49.3; active.
